Data reported in article PMC6114517.

Biological target: T1, Egalitarian (Egl) (Drosophila (endogenous in ovaries and embryos)) (UniProt Q9W1K4)
T1 sequence: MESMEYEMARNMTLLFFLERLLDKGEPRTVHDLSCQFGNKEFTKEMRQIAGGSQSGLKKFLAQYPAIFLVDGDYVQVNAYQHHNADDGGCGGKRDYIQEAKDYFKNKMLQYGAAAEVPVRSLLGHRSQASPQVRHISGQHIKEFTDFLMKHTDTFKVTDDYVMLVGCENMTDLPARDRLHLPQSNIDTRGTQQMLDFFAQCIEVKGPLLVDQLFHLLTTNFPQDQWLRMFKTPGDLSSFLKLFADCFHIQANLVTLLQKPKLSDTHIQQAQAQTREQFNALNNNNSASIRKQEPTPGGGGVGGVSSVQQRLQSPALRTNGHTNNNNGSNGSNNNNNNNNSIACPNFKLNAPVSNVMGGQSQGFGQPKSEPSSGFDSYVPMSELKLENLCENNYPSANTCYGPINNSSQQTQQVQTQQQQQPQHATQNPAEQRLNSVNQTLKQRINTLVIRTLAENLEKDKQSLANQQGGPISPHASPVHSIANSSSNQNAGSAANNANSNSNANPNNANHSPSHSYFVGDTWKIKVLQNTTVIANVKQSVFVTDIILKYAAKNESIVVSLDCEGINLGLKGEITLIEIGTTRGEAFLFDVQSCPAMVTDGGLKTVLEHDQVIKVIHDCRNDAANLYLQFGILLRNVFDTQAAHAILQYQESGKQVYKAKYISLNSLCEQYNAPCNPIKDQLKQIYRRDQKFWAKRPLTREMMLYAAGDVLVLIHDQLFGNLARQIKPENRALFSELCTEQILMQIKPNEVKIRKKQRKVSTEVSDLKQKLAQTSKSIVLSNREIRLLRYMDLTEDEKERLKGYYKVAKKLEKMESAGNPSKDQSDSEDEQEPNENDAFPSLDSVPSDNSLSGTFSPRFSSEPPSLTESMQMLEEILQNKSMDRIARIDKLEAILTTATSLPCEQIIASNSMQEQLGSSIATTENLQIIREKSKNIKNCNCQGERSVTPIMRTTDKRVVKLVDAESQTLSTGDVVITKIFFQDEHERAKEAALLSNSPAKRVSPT
Assay: condition: only under the stringent purification conditions used in RIP; co-IP; under RIP conditions: anti-Egl on Dynabeads Protein A, ovary lysate of nosGal4; UAS-HeT-A-HA; UAS-spnE_sh flies; lysis buffer 10 mM HEPES pH 7.0, 100 mM KCl, 5 mM MgCl2, 0.5% NP-40, diluted in NT2 buffer; 2 h at 4°C; Western blot of 1/10 of the beads; control normal rabbit IgG

binding: no binding
Substance: HeT-A Gag-HA (Drosophila)

Results are given in words; binding and its absence hold for the method and conditions named. In cells and extracts the contact can be indirect.
